Results reported in patent US7105679B2, “Heteroatom containing tetracyclic derivatives as selective estrogen receptor modulators” (priority 2001, dated 2006).

Sequences of proteins named here, by UniProt entry; tags and fusion partners are left off.
UniProt P03372, whole entry: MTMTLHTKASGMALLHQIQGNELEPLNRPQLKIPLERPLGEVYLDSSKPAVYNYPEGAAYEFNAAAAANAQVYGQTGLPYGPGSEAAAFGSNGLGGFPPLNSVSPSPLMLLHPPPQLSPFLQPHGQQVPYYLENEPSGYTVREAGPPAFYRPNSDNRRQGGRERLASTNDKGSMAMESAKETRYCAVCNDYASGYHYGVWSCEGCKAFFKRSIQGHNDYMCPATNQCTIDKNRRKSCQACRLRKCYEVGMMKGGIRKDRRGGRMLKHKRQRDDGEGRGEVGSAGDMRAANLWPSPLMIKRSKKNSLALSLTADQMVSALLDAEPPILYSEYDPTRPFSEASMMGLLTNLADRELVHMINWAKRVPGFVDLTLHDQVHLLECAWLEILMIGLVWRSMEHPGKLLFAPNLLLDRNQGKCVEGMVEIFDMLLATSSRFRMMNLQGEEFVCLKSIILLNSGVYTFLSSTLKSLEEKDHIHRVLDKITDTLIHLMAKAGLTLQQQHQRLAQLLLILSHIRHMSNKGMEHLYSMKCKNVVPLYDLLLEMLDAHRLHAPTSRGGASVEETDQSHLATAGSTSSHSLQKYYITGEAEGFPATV

Target: human estrogen receptor α (Homo sapiens, UniProt P03372)
Assay: Estrogen Receptor α Flash Plate Assay (binding of radiolabeled estrogen)
Conditions: read-out: Estrogen Receptor α in μM (No.), 0.5 nM radiolabeled estrogen, number in brackets = No. of determinations, NA = no detected activity at test concentration

IC50: 17 nM and 6.4 nM
Compound: Oc1ccc2c(c1)OC(c1ccc(OCCN3CCCCC3)cc1)C1=C2COc2cc(O)ccc21 (single isomer, unassigned)

Certain results were filed several times, with different values. The list is limited to them. The source may hold further records. Results that share an entry differ for a reason that is not stated; some may be repeats, others may stem from another dose, organism or construct than stated.
